The other results are listed elsewhere or left out.
Tests used:
Experiment in all cases: log2 fold change, soluble protein after heating vs DMSO (PISA); higher = thermal stabilisation; K562 lysate, 10 uM; active = over 0.2 and 3.5 SD of the protein, either way, in both replicates (recomputed)
erlotinib = compound: C#Cc1cccc(Nc2ncnc3cc(OCCOC)c(OCCOC)cc23)c1 [erlotinib]
In short: (§1)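 The values are log-two fold changes in thermal stability compared with solvent controls and come from duplicates. They were obtained by TMTpro 16plex LC-MS/MS, with channel sums equalised, on the supernatant after 21,000xg for 90 min. That supernatant came from crude K562 extract at 1 mg/mL protein treated with 10 μM compound for 30 min, heated for 3 min across 48°C-58°C, pooled and brought to 0.5% NP-40 at 4°C.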

Chains of the proteins cited; added tags and fusions are not shown. Lines headed by an entry give the natural chain unless they say otherwise; changes in a name come on top.
UniProt Q9Y2H0: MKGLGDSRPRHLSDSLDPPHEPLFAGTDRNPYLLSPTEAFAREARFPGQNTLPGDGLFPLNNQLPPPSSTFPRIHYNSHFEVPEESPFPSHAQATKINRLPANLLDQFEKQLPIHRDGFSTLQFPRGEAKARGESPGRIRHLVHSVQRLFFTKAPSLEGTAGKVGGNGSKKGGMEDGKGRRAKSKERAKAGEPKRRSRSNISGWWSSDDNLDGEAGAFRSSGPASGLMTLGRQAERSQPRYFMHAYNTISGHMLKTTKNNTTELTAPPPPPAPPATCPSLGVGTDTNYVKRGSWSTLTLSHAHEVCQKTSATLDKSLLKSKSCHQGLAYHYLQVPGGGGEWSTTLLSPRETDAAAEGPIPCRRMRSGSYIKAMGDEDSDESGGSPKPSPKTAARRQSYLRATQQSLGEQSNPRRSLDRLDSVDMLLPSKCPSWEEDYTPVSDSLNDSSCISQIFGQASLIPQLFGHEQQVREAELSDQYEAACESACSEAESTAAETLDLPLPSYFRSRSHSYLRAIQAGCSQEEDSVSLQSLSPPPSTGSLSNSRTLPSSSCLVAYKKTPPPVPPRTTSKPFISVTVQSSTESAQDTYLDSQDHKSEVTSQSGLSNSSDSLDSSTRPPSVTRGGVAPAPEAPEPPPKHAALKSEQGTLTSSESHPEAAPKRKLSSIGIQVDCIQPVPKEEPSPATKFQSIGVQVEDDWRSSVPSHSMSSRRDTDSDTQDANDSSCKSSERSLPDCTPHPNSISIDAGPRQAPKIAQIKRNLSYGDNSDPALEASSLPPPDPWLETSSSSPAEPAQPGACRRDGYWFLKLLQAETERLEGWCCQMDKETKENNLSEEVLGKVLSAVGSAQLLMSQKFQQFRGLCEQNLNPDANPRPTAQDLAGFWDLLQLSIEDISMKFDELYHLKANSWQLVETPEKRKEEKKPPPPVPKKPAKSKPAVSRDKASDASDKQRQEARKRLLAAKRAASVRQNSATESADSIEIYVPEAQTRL
UniProt Q9Y485, whole entry, looked up: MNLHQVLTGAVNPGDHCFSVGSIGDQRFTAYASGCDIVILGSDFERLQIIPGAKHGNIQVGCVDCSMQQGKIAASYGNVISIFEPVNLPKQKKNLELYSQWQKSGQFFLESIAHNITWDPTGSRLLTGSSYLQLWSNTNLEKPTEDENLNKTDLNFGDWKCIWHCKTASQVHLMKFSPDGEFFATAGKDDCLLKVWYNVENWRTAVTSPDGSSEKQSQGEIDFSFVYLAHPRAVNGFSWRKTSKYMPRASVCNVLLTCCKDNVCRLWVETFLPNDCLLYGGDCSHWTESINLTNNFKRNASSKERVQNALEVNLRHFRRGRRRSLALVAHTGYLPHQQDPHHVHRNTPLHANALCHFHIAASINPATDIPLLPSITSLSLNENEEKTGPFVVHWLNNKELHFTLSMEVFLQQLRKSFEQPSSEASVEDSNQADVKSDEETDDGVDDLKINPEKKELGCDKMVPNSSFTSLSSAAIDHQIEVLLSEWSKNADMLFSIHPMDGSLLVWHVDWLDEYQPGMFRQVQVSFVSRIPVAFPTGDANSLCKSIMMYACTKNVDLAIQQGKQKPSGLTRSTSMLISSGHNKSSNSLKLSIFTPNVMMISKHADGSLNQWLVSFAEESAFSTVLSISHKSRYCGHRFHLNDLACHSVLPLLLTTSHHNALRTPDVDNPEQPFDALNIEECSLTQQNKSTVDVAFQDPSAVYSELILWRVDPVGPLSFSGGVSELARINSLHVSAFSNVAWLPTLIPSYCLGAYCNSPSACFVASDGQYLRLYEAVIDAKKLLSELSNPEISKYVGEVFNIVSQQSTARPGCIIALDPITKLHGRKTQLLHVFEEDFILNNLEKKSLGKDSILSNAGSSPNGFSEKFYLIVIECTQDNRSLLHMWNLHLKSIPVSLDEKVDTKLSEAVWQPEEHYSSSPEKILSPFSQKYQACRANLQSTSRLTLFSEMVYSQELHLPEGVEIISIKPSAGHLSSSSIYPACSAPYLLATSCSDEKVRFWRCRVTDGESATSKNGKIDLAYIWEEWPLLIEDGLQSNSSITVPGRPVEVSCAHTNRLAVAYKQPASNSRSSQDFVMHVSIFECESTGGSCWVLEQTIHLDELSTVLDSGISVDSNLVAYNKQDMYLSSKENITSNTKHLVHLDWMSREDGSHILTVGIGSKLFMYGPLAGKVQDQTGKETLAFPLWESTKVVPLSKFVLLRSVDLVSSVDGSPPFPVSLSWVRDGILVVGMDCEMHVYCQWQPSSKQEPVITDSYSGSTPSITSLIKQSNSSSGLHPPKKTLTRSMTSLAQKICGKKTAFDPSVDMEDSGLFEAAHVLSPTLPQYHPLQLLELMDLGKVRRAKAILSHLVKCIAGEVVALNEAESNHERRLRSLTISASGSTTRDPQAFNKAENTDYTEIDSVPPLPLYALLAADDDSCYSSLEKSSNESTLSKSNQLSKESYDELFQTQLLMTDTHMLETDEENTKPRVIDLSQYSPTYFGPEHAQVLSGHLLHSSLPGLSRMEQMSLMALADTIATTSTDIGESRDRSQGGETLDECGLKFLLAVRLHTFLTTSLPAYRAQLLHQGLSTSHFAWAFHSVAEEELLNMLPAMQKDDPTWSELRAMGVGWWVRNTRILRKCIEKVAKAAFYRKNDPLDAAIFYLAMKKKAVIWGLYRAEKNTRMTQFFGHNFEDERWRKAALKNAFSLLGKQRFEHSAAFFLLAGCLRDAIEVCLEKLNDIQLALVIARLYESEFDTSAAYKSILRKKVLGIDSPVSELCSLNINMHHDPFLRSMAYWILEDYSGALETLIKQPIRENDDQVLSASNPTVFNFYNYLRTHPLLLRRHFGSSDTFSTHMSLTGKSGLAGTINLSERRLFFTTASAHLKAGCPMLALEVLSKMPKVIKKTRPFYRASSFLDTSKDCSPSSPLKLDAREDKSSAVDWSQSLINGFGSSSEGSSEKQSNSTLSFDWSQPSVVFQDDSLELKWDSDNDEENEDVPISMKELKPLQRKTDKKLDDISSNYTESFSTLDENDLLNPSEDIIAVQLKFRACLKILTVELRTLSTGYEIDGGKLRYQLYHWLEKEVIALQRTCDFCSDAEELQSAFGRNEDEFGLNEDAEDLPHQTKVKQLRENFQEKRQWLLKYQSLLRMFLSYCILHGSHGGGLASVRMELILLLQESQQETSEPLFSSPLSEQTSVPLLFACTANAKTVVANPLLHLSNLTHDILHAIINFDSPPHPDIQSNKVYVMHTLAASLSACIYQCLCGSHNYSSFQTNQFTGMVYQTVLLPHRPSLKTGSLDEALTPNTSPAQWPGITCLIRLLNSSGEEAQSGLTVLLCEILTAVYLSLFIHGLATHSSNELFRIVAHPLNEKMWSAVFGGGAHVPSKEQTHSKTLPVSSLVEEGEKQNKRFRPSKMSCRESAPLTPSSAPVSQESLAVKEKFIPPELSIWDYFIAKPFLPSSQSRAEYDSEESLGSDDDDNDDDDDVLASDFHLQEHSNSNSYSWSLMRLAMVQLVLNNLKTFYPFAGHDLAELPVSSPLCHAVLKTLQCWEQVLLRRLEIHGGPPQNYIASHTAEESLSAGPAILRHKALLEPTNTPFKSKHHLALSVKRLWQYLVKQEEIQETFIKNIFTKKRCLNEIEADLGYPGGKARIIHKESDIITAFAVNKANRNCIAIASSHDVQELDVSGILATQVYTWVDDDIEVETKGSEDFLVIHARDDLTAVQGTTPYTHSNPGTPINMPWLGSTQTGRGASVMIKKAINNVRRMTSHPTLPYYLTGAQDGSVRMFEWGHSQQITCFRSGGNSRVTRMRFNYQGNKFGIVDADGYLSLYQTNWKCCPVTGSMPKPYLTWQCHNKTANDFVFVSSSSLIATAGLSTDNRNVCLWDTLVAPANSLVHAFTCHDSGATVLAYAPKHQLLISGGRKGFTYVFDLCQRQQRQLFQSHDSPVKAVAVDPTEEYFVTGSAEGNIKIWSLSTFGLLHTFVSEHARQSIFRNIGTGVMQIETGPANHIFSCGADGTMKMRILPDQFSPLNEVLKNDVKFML
UniProt Q13217: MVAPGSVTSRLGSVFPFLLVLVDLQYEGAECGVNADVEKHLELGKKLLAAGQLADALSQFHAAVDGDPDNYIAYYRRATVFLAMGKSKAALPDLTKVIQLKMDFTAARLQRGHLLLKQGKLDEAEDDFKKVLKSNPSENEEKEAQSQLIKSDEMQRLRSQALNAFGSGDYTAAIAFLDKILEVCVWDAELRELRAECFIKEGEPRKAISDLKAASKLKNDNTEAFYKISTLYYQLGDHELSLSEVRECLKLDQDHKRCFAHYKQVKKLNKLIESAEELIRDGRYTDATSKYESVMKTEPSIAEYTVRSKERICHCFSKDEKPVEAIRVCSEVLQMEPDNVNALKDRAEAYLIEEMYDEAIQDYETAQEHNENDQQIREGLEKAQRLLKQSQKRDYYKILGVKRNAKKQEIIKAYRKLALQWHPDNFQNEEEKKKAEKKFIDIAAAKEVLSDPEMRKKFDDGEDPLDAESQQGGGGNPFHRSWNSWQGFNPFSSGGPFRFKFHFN
UniProt Q99704: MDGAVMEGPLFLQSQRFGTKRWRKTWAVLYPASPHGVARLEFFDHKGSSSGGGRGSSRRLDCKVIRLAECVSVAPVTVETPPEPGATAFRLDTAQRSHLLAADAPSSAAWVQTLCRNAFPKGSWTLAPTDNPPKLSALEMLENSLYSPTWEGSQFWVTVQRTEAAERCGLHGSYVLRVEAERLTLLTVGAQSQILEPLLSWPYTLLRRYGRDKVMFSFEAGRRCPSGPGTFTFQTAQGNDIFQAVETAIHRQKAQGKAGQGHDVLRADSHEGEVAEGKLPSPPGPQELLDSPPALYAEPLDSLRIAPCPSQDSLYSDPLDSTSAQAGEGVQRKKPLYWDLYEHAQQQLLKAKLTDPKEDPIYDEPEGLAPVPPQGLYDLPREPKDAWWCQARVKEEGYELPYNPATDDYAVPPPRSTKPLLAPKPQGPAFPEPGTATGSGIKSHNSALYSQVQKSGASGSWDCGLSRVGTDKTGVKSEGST
UniProt Q9UNQ2: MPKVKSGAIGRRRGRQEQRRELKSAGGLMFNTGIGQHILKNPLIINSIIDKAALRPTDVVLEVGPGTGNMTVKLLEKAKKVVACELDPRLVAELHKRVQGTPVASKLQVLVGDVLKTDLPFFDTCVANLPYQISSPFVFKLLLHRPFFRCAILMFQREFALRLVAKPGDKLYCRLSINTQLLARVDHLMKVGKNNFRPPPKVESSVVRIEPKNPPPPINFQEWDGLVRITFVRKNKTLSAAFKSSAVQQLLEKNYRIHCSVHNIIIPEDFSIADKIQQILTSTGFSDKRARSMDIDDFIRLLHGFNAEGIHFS
UniProt Q86YN1: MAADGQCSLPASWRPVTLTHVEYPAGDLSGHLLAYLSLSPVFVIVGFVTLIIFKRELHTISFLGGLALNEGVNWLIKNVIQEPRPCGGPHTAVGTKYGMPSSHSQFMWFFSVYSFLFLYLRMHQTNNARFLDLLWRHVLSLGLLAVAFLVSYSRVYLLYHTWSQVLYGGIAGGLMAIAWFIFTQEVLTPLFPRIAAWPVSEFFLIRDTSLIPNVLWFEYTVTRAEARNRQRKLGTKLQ
UniProt Q9NPF5, whole entry, looked up: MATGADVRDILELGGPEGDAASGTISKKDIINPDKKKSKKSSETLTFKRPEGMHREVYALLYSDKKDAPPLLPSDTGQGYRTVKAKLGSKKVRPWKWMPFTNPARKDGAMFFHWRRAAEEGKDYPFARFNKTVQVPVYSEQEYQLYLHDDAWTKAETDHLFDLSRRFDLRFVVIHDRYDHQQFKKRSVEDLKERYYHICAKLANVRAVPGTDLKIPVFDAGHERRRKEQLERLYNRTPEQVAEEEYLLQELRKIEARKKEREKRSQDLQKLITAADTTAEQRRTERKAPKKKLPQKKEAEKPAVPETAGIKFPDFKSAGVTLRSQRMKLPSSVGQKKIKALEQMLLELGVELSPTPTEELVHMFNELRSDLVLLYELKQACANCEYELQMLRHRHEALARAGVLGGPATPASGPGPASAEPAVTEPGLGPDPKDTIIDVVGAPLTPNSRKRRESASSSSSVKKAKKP
UniProt Q15392: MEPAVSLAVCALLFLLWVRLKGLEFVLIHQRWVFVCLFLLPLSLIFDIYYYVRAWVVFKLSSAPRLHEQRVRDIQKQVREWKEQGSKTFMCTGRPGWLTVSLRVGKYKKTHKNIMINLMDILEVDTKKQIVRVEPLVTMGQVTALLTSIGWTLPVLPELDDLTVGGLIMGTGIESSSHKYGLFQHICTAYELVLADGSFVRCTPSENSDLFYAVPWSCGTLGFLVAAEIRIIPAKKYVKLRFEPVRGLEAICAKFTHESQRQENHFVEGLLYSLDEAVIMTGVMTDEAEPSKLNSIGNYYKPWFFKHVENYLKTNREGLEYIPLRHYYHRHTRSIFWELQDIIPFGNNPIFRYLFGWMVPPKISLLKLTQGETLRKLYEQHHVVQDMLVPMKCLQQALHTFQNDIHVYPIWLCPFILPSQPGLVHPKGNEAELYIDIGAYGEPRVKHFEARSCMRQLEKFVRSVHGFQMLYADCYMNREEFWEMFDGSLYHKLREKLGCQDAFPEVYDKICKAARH

[1] = compound: C/C(=N\NC(=O)C1=CC(=CC=C1)S(=O)(=O)N2CCOCC2)/C3=C(C=CC(=C3)Cl)O
In short: as §1

[2] = compound: C1=CC(=CC=C1C2=NC3=C(N2)C=C(C=C3)C(=O)N)OC4=CC=C(C=C4)Cl
In short: as §1

[3] = compound: C1=CC2=C(C=CC(=C2)/C=C\3/C(=O)NC(=NCC4=CC=CS4)S3)N=C1
In short: as §1

[4] = compound: C1=CC2=NC=CN=C2C=C1/C=C/3\C(=O)NC(=O)S3
In short: as §1

[5] = compound: C1=CC=C(C=C1)C2=NC(=C(N2)C3=CC=NC=C3)C4=CC(=C(C=C4)Cl)O
In short: as §1

[6] = compound: C1=CC=C2C(=C1)C3=NNC4=CC=CC(=C43)C2=O
In short: as §1

[7] = compound: C1CCN(C1)C(=O)NC2=CC=CC(=C2)NC3=NC=C(C(=N3)NCCC4=CN=CN4)Br
In short: as §1

[8] = compound: C1CN(CCC1(CC2=CC=C(C=C2)Cl)N)C3=NC=NC4=C3C=CN4
In short: as §1

IRAK-1-4 Inhibitor I = compound: C1COCCN1CCN2C3=CC=CC=C3N=C2NC(=O)C4=CC(=CC=C4)[N+](=O)[O-] [IRAK-1-4 Inhibitor I]
In short: as §1

ibrutinib = compound: C=CC(=O)N1CCC[C@@H](n2nc(-c3ccc(Oc4ccccc4)cc3)c3c(N)ncnc32)C1 [ibrutinib]
In short: as §1

[9] = compound: CC(=O)c1cnc2ccc(-c3cc(Cl)c(O)c(Cl)c3)nc2c1N[C@H]1CC[C@H](CN(C)C)CC1
In short: as §1

ralimetinib = compound: CC(C)(C)Cn1c(N)nc2ccc(-c3[nH]c(C(C)(C)C)nc3-c3ccc(F)cc3)nc21 [ralimetinib]
In short: as §1

[10] = compound: CC(C)(O)CC(=O)NCCn1ccc2ncnc(Nc3ccc(Oc4cccc(C(F)(F)F)c4)c(Cl)c3)c21
In short: as §1

[11] = compound: CC(C)C1=C2N=C(C=C(N2N=C1)NCC3=CC=CC=C3)NCCCCCCN
In short: as §1

[12] = compound: CC1=C(C(CC(=O)N1)C2=CC=C(C=C2)C(F)(F)F)C(=O)NC3=C(C=C4C(=C3)C=NN4)F
In short: as §1

[13] = compound: CC1=C(C2=C(C=C1)C(=O)C3=CC=CC=C3N2CCCN)C
In short: as §1

[14] = compound: CC1=C(C=C(C=C1)NC(=O)C2=CC(=CC=C2)C(C)(C)C#N)NC3=CC4=C(C=C3)N=CN(C4=O)C
In short: as §1

[15] = compound: CC1=C(C=C(C=C1)NC(=O)C2=CC(=CC=C2)N(C)C)NC(=O)C3=CC=C(C=C3)O
In short: as §1

[16] = compound: CC1=CC=C(C=C1)SC2=C3C=C(SC3=CN=C2)C(=O)N
In short: as §1

Measured: log2 fold change

DHX29 (UniProt Q7Z478)
inactive: erlotinib -0.02 | [1] -0.077 | [2] -0.01 | [3] -0.019 | [4] -0.005 | [5] 0.004 | [6] 0.017 | [7] -0.013 | [8] -0.001 | IRAK-1-4 Inhibitor I -0.005 | ibrutinib -0.015 | [9] -0.027 | ralimetinib 0.018 | [10] -0.043 | [11] 0.01 | [12] 0.014 | [13] 0.036 | [14] -0.027 | [15] -0.003 | [16] 0.001

DLGAP4 (UniProt Q9Y2H0)
inactive: erlotinib -0.024 | [1] -0.006 | [2] 0.037 | [3] -0.019 | [4] 0.023 | [5] -0.001 | [6] 0.086 | [7] 0.002 | [8] -0.004 | IRAK-1-4 Inhibitor I -0.045 | ibrutinib 0.017 | [9] 0.004 | ralimetinib 0.02 | [10] 0.01 | [11] -0.024 | [12] -0.011 | [13] 0.018 | [14] 0.062 | [15] -0.009 | [16] -0.023

DNAH9 (UniProt Q9NYC9)
inactive: erlotinib -0.028 | [1] 0.027 | [2] 0.045 | [3] -0.037 | [4] -0.027 | [5] -0.021 | [6] 0.027 | [7] 0.014 | [8] -0.004 | IRAK-1-4 Inhibitor I 0.025 | ibrutinib -0.047 | [9] -0.069 | ralimetinib 0 | [10] -0.007 | [11] -0.005 | [12] -0.043 | [13] 0.054 | [14] 0.035 | [15] -0.04 | [16] -0.061

DNAJA3 (UniProt Q96EY1)
inactive: erlotinib 0.032 | [1] -0.012 | [2] -0.011 | [3] -0.069 | [4] -0.055 | [5] 0.026 | [6] -0.018 | [7] -0.007 | [8] 0.036 | IRAK-1-4 Inhibitor I -0.014 | ibrutinib 0.064 | [9] -0.048 | ralimetinib 0.02 | [10] -0.049 | [11] 0.016 | [12] 0.006 | [13] -0.014 | [14] -0.03 | [15] 0.014 | [16] -0.029

DMXL1 (UniProt Q9Y485)
inactive: erlotinib 0.006 | [1] 0.016 | [2] -0.015 | [3] -0.017 | [4] -0.024 | [5] -0.008 | [6] -0.026 | [7] -0.013 | [8] -0.001 | IRAK-1-4 Inhibitor I 0.016 | ibrutinib -0.02 | [9] -0.025 | ralimetinib 0.021 | [10] -0.012 | [11] 0.016 | [12] -0.001 | [13] -0.024 | [14] 0 | [15] 0.064 | [16] -0.026

DOCK7 (UniProt Q96N67)
inactive: erlotinib 0.078 | [1] 0.009 | [2] -0.045 | [3] -0.041 | [4] -0.126 | [5] 0.014 | [6] -0.023 | [7] -0.003 | [8] 0.016 | IRAK-1-4 Inhibitor I 0.024 | ibrutinib -0.117 | [9] -0.009 | ralimetinib 0.077 | [10] -0.054 | [11] 0.021 | [12] 0.03 | [13] -0.078 | [14] 0.009 | [15] 0.065 | [16] -0.028

DNAJC3 (UniProt Q13217)
inactive: erlotinib -0.002 | [1] -0.057 | [2] 0.06 | [3] 0.008 | [4] -0.021 | [5] -0.032 | [6] -0.02 | [7] -0.033 | [8] -0.047 | IRAK-1-4 Inhibitor I 0.011 | ibrutinib 0.009 | [9] -0.004 | ralimetinib -0.022 | [10] 0.007 | [11] -0.021 | [12] 0.024 | [13] 0.006 | [14] -0.011 | [15] -0.054 | [16] -0.018

DNM2 (UniProt P50570)
inactive: erlotinib 0.045 | [1] -0.009 | [2] 0.049 | [3] 0.013 | [4] 0.029 | [5] 0.003 | [6] -0.049 | [7] -0.022 | [8] -0.008 | IRAK-1-4 Inhibitor I 0 | ibrutinib 0.014 | [9] 0 | ralimetinib 0.013 | [10] 0.013 | [11] 0.018 | [12] 0.011 | [13] 0.024 | [14] -0.016 | [15] 0.006 | [16] 0.004

DOK1 (UniProt Q99704)
inactive: erlotinib -0.024 | [1] 0.051 | [2] 0.023 | [3] 0.015 | [4] 0.002 | [5] -0.041 | [6] -0.02 | [7] 0.021 | [8] 0.06 | IRAK-1-4 Inhibitor I 0.021 | ibrutinib 0.023 | [9] 0.01 | ralimetinib 0.017 | [10] 0.014 | [11] -0.029 | [12] 0.137 | [13] 0.018 | [14] 0.017 | [15] 0.014 | [16] -0.135

DNAJB14 (UniProt Q8TBM8)
inactive: erlotinib -0.04 | [1] -0.045 | [2] 0.055 | [3] -0.026 | [4] -0.013 | [5] -0.068 | [6] 0 | [7] 0.022 | [8] 0.089 | IRAK-1-4 Inhibitor I 0.049 | ibrutinib 0.053 | [9] -0.022 | ralimetinib 0.042 | [10] -0.12 | [11] 0.012 | [12] 0.07 | [13] -0.043 | [14] 0.062 | [15] -0.012 | [16] -0.12

DIMT1 (UniProt Q9UNQ2)
inactive: erlotinib -0.051 | [1] -0.033 | [2] -0.012 | [3] 0.009 | [4] -0.005 | [5] -0.007 | [6] -0.018 | [7] 0.019 | [8] -0.031 | IRAK-1-4 Inhibitor I 0.001 | ibrutinib 0.005 | [9] 0.002 | ralimetinib 0.008 | [10] -0.035 | [11] -0.017 | [12] -0.018 | [13] -0.057 | [14] -0.032 | [15] 0.004 | [16] -0.001

DOLPP1 (UniProt Q86YN1)
inactive: erlotinib 0.004 | [1] -0.283 | [2] -0.052 | [3] 0.014 | [4] -0.012 | [5] -0.031 | [6] -0.161 | [7] -0.101 | [8] 0.036 | IRAK-1-4 Inhibitor I -0.022 | ibrutinib -0.004 | [9] -0.016 | ralimetinib 0.016 | [10] -0.068 | [11] 0.096 | [12] 0.027 | [13] 0.022 | [14] 0.029 | [15] 0.092 | [16] -0.005

DMAP1 (UniProt Q9NPF5)
inactive: erlotinib 0.035 | [1] -0.043 | [2] 0.05 | [3] 0.043 | [4] -0.024 | [5] -0.008 | [6] -0.046 | [7] -0.068 | [8] -0.048 | IRAK-1-4 Inhibitor I 0.038 | ibrutinib 0.213 | [9] 0.059 | ralimetinib 0.052 | [10] -0.019 | [11] 0.029 | [12] 0.145 | [13] -0.012 | [14] 0.049 | [15] 0.042 | [16] 0.029

DLGAP5 (UniProt Q15398)
inactive: erlotinib -0.015 | [1] 0.023 | [2] -0.006 | [3] -0.024 | [4] -0.02 | [5] 0.026 | [6] -0.021 | [7] -0.013 | [8] -0.013 | IRAK-1-4 Inhibitor I -0.009 | ibrutinib 0.004 | [9] 0.02 | ralimetinib -0.018 | [10] 0.005 | [11] -0.036 | [12] -0.009 | [13] -0.007 | [14] -0.012 | [15] 0.016 | [16] -0.003

DHCR24 (UniProt Q15392)
inactive: erlotinib -0.054 | [1] -0.009 | [2] 0.017 | [3] 0.047 | [4] -0.019 | [5] 0.021 | [6] 0.011 | [7] -0.043 | [8] -0.064 | IRAK-1-4 Inhibitor I 0.038 | ibrutinib -0.111 | [9] 0.033 | ralimetinib -0.017 | [10] 0.071 | [11] -0.014 | [12] -0.012 | [13] -0.089 | [14] 0.202 | [15] -0.043 | [16] -0.076

DGCR8 (UniProt Q8WYQ5)
inactive: erlotinib 0.045 | [1] -0.026 | [2] 0.019 | [3] 0.023 | [4] -0.057 | [5] 0.002 | [6] -0.011 | [7] -0.019 | [8] 0 | IRAK-1-4 Inhibitor I -0.038 | ibrutinib 0.031 | [9] -0.049 | ralimetinib 0.014 | [10] -0.014 | [11] 0.015 | [12] 0.02 | [13] -0.018 | [14] -0.219 | [15] 0.071 | [16] -0.006

Copied from the results shown (4 entries):
DOCK7 (UniProt Q96N67)
inactive: erlotinib 0.078 | [1] 0.009 | [2] -0.045 | [3] -0.041 | [4] -0.126 | [5] 0.014 | [6] -0.023 | [7] -0.003 | [8] 0.016 | IRAK-1-4 Inhibitor I 0.024 | ibrutinib -0.117 | [9] -0.009 | ralimetinib 0.077 | [10] -0.054 | [11] 0.021 | [12] 0.03 | [13] -0.078 | [14] 0.009 | [15] 0.065 | [16] -0.028

DNAJC3 (UniProt Q13217)
inactive: erlotinib -0.002 | [1] -0.057 | [2] 0.06 | [3] 0.008 | [4] -0.021 | [5] -0.032 | [6] -0.02 | [7] -0.033 | [8] -0.047 | IRAK-1-4 Inhibitor I 0.011 | ibrutinib 0.009 | [9] -0.004 | ralimetinib -0.022 | [10] 0.007 | [11] -0.021 | [12] 0.024 | [13] 0.006 | [14] -0.011 | [15] -0.054 | [16] -0.018

DNM2 (UniProt P50570)
inactive: erlotinib 0.045 | [1] -0.009 | [2] 0.049 | [3] 0.013 | [4] 0.029 | [5] 0.003 | [6] -0.049 | [7] -0.022 | [8] -0.008 | IRAK-1-4 Inhibitor I 0 | ibrutinib 0.014 | [9] 0 | ralimetinib 0.013 | [10] 0.013 | [11] 0.018 | [12] 0.011 | [13] 0.024 | [14] -0.016 | [15] 0.006 | [16] 0.004

DOK1 (UniProt Q99704)
inactive: erlotinib -0.024 | [1] 0.051 | [2] 0.023 | [3] 0.015 | [4] 0.002 | [5] -0.041 | [6] -0.02 | [7] 0.021 | [8] 0.06 | IRAK-1-4 Inhibitor I 0.021 | ibrutinib 0.023 | [9] 0.01 | ralimetinib 0.017 | [10] 0.014 | [11] -0.029 | [12] 0.137 | [13] 0.018 | [14] 0.017 | [15] 0.014 | [16] -0.135

— the supplement of paper PMC10849652
